# Primary screen of a compound library

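Whole-parasite assay of Trypanosoma brucei over 72 hours; the read-out is not stated. Compounds at 30 µM. Direction is inferred from retests: higher values go with stronger inhibition. Values scatter widely below zero; nearly all retest evidence comes from the higher of the two concentrations used. Size under these conditions: about 64,000 compounds, about 940 of them at 50% or above in at least one test.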

Values are the deposited “Percent Effect”, in %.
How 0% and 100% were set is not recorded. Most values in the screen are low, and negative values occur.
This is an unselected part of the compounds tested.

Result for c1cnn(C2CN(c3nc(-c4ccncc4)nc4c3CCC4)C2)c1 was -43.56%. With Cc1nc2ccccc2n1CCNCc1cccc(O)c1 the screen gave -11.14%. O=C1CN(C(=O)CC2c3ccccc3CCc3ccccc32)CCN1 gave 12.48%. Result for COC(=O)COc1nc(CC(C)C)c2c(c1C#N)CCCC2 was -36.18%. c1cncc(-c2noc(CN3CCOC(Cn4cccn4)C3)n2)c1 (stereo unspecified) gave 11.16%.

With Cl.O=C(NCc1cccc(Cl)c1)C1=NOC2(CCNC2)C1 (stereo unspecified) the screen gave 22.15%. CC(=O)NC1CC(C)(C)Cc2c1cnn2-c1cccc(F)c1 (stereo unspecified) gave -59.29%. Result for CCC(CO)NC(=O)c1cc(COc2ccc(OC)cc2Cl)[nH]n1 (stereo unspecified) was -11.65%. CCN(Cc1cc(F)c(OC)c(Cl)c1)Cc1noc(CC(C)C)n1 read -17.92%. With Cc1ccnc(C2(C)CCCN2C(=O)c2cnccn2)n1 (stereo unspecified) the screen gave 16.03%.

For COc1ccc(N(C(=O)c2cnc(C)cn2)C(C)C)cc1F the result was 17.92%. CCn1cc(NS(=O)(=O)c2ccc(F)cc2)c(C(=O)NCC(C)C)n1 gave -23.76%. CCN(Cc1ccc(C#N)cc1F)C(=O)C(C)(C)C gave -3.138%. CN(C)CCN1C(=O)CCCC12CCCN(C(=O)c1ccncc1)C2.O=C(O)C(F)(F)F.O=C(O)C(F)(F)F (stereo unspecified) gave -7.261%. For Cn1nccc1-c1nc2c(cc1C(=O)O)CCN(CC1CC1)CC2 the result was -225.5%.

COc1ccc(F)cc1C(=O)N1CCCC(n2nc(C)nc2C)C1 (stereo unspecified) gave 17.77%. Result for O=C(Nc1cccnc1-n1cc(Br)cn1)C1CCCC1 was -26.69%. With CC(NCC1CCN(CCO)CC1)c1cccnc1 (stereo unspecified) the screen gave -18.53%. CCC(CNC(C)=O)(OC)c1ccccc1 (stereo unspecified) gave 12.21%. With O=C(c1ccccc1N1CCOCC1)N1CCCC1Cn1cccn1 (stereo unspecified) the screen gave 22.13%.

Result for COCC1CC2(CCN(C(=O)c3ccc(F)cc3C)CC2)CO1 (stereo unspecified) was -103.7%. With Cc1cnn(CC2CCCN2CC(=O)N(C)CCC#N)c1 (stereo unspecified) the screen gave -13.13%. O=C(Cn1nc(N2CCOCC2)ccc1=O)Nc1nccs1 gave -6.946%. CCOCc1ncn2c1CN(C(=O)Nc1cccc(C)c1)CC2 read 48.61%. [H][C@@]12COC[C@H](C(=O)Nc3cnccn3)[C@]1([H])CN(S(C)(=O)=O)C2 read -23.2%.

Cl.Cl.[H][C@@]12CNCC[C@]1([H])N(c1nccs1)[C@H](Cn1cncn1)C2 read -72.56%. Result for O=C(c1scc2c1OCCO2)N1CCN(Cc2cccc(F)c2)CC1 was -8.484%. For CCc1cccc(NC(=O)N2CCn3cnc(COC)c3C2)c1 the result was -5.171%. For Cc1ccc(-c2noc(CCC(=O)NC(C)Cn3cccn3)n2)cc1 (stereo unspecified) the result was -41.41%. COCC(C)N(C)C(=O)NC1CCN(S(C)(=O)=O)CC1 (stereo unspecified) gave -15.04%.

Cn1ncc2c(NC3CCC3)nc(-c3ccncc3)nc21 read -53.38%. CC(=O)N1CCn2c(C(=O)N(C)C)cnc2C1 gave 15.3%. For [H][C@@]12OCCC[C@]1([H])N(C(=O)c1cnc(C)cn1)C[C@@H]2N1CCOCC1 the result was 0.83%. O=C(O)C(F)(F)F.O=C(O)C(F)(F)F.[H][C@]12CCN(c3ncccn3)[C@@]1([H])CC[C@H](COCc1ccccn1)O2 gave -21.49%.

Repeated from the top, 2 entries:

compound	effect
c1cnn(C2CN(c3nc(-c4ccncc4)nc4c3CCC4)C2)c1	-43.56
Cc1nc2ccccc2n1CCNCc1cccc(O)c1	-11.14

Data taken from ChEMBL document CHEMBL3988442, “University of Dundee, Small-Polar-MMV Screening Library” (2021).